# Test results: paper PMC7819943, “Rice protein-binding microarrays: a tool to detect cis-acting elements near promoter regions in rice”
# By UniProt entry, the sequences of proteins in these tests, tags left out.
# UniProt Q0JBA9, entry or part of it: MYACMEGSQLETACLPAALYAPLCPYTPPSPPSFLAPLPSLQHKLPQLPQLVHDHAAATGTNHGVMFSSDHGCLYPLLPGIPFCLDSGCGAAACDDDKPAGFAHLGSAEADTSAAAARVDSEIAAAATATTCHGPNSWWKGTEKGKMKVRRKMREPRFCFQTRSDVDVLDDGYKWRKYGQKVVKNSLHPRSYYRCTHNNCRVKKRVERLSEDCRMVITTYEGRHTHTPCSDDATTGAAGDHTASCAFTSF
# The other results are listed elsewhere or left out.
# Target: OsWRKY34 (Oryza sativa, UniProt Q0JBA9 1-250)
# Assay: protein-binding microarray (RPBM); PBS, 2% BSA, 51.3 ng/ul salmon testes DNA, 50 uM zinc acetate, 200 nM TF, 25 C, 1 h; high values mean tight binding
# Conditions: protein: recombinant; tags: N-terminal polyhistidine and DsRed monomer fusion (pET32a); label: CyDye5-dUTP incorporated in the synthesized complementary strand; 3' TTTTT single-stranded linker to array surface; dsDNA, one strand shown
# Method in brief: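 Binding signal is defined as the fluorescence intensity of each feature in arbitrary units, read on an Axon 4000B scanner. Transcription factors with N-terminal polyhistidine and DsRed fusions came from E. coli BL21-CodonPlus and were purified on Ni–NTA. They were incubated at 200 nM for 1 h at 25 °C on a custom Agilent array that had been made double-stranded with Cy5-dUTP, with 50 µM zinc acetate present, and the array was washed.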
row,Sequence,binding signal
1,ATCACATCAAAATTTTCCTACACACGTAAACTTCCGTCACCGGAGTCACCTAGTGCAG,13900 fluorescence intensity (a.u.)
2,CGTCACCCGAGCAGCGTTTCGCTTGTACCCGCCCGGCGCACGGAGTCACCTAGTGCAG,8850 fluorescence intensity (a.u.)
3,TATCTGATGATGTGGGAGGTTCTAAAGGCAGTGCCGCTAGCGGAGTCACCTAGTGCAG,8410 fluorescence intensity (a.u.)
4,CACTGCTTGCCTTGGTCTCACTCTAGTCAACGCGCCCACGCGGAGTCACCTAGTGCAG,9950 fluorescence intensity (a.u.)
5,ACACATGCACTCCTTGACATTAGGCTATATACACATTTCTCGGAGTCACCTAGTGCAG,11600 fluorescence intensity (a.u.)
6,GTTTATAGGTTGCTATTGTACCTGCTCTTACTCTAGTGCTCGGAGTCACCTAGTGCAG,8390 fluorescence intensity (a.u.)
7,TTTAAGTCGGTTGATTCGGATACGGTTGGTTAGTTCCGTTCGGAGTCACCTAGTGCAG,10100 fluorescence intensity (a.u.)
8,GGGGTGTTAGTTAATTGCATGTATCCGTACGTGACTTGTACGGAGTCACCTAGTGCAG,14400 fluorescence intensity (a.u.)
9,GCGGGCTTCAAAACAACTTTTCTCATAAACTAATTATCCACGGAGTCACCTAGTGCAG,8540 fluorescence intensity (a.u.)
10,TAGTATAACTTACATCATTTCTCATCCTCCTATTACTATTCGGAGTCACCTAGTGCAG,8840 fluorescence intensity (a.u.)
11,GAGCTACAACCCGGTAATTAGCATTATCATTTATATTTACCGGAGTCACCTAGTGCAG,8440 fluorescence intensity (a.u.)
12,CAATTGGCGCCATATTTTGGAGTGAGCATATCAACCTCTCCGGAGTCACCTAGTGCAG,8460 fluorescence intensity (a.u.)
13,TTGATCCTTTTTCGCCGCTCACGCCGAGCTGCCCCGACAACGGAGTCACCTAGTGCAG,8340 fluorescence intensity (a.u.)
14,CCTTATACTGTCTCACTTGTCTCACACTGAAACCGTTTTCCGGAGTCACCTAGTGCAG,8410 fluorescence intensity (a.u.)
15,TTATAACACCAGTCGTTTTCTACAACTTTGTTGTTTTTTCCGGAGTCACCTAGTGCAG,10100 fluorescence intensity (a.u.)
16,CATCTTTGATCTCATCCTGTTCCAGCTCCTAGTGCACCACCGGAGTCACCTAGTGCAG,9330 fluorescence intensity (a.u.)
17,CACATTTTTCGGCATCCCACCAACCCGTCGACCCCGGCATCGGAGTCACCTAGTGCAG,8390 fluorescence intensity (a.u.)
18,AGCAGTATCTAGTTCTGCCTTGTTCTTGCTCCTTATATAACGGAGTCACCTAGTGCAG,8350 fluorescence intensity (a.u.)
19,GCTCCCGTCGCCGTCCGTACCCCGGCTCCCGGCGACCGCCCGGAGTCACCTAGTGCAG,9940 fluorescence intensity (a.u.)
20,ACAATATCTTCTAACTTAACCTGTTGCGGCTTGTTTGTTACGGAGTCACCTAGTGCAG,10300 fluorescence intensity (a.u.)
21,TGTGACCACATCATCTGCACAGCTCAAGTCTCCATTACTACGGAGTCACCTAGTGCAG,8480 fluorescence intensity (a.u.)

row,Sequence,binding signal
1,CCGCAACCACAATTGGCTACATTTCACAATCACCTTTTTGCGGAGTCACCTAGTGCAG,9370 fluorescence intensity (a.u.)
2,GGCGGTGGATGGTGGTGCGGCGGCAGGAAGGGCGGGAGCGCGGAGTCACCTAGTGCAG,10200 fluorescence intensity (a.u.)
3,TCCCGTACGCCTCTACTACCTCTTTTACCTGCGTGCCTTCCGGAGTCACCTAGTGCAG,11100 fluorescence intensity (a.u.)
4,CTTCTCCTTGGATGCCTCGGCTTCCTCACCACATGCCCCGCGGAGTCACCTAGTGCAG,10000 fluorescence intensity (a.u.)
5,GTCGGTTTACAGTAGTGGGCCTTTGTCGATTCAGACCGGGCGGAGTCACCTAGTGCAG,8670 fluorescence intensity (a.u.)
6,CGTTCTGTCTTGATTATCTGTTCGTTCTTGATTATCCATTCGGAGTCACCTAGTGCAG,13200 fluorescence intensity (a.u.)
7,AAAGCTCAACATTTCGGCCTTCTTATTTTGACTTTTTGGCCGGAGTCACCTAGTGCAG,12300 fluorescence intensity (a.u.)
8,GAGGTGTAATTTTAGCTTTTTTATTTGTGACGTACTCCATCGGAGTCACCTAGTGCAG,8620 fluorescence intensity (a.u.)
9,CCACACACCATTGCCGCATCATCCACCACCGCCTCCTCAGCGGAGTCACCTAGTGCAG,8990 fluorescence intensity (a.u.)
10,TGGTTTCCGTGTCCAATGTTTGACCGTCCGTCTTATTTGACGGAGTCACCTAGTGCAG,11000 fluorescence intensity (a.u.)
11,TTTCAAAATATTTGACACCGTTGACTTTTTAACACATGTTCGGAGTCACCTAGTGCAG,17900 fluorescence intensity (a.u.)
12,GCGCTTTTGTCTTGGTCATTGATCATTTCCACGATGAGATCGGAGTCACCTAGTGCAG,13000 fluorescence intensity (a.u.)
13,TCATCCGGTGCCTGTTGTCTCTTTCTTCTCTCTCACATACCGGAGTCACCTAGTGCAG,16600 fluorescence intensity (a.u.)
14,CCACCGCCGCCTCCGCCGCCACCACGCACGCCAGGATCATCGGAGTCACCTAGTGCAG,8450 fluorescence intensity (a.u.)
15,GTTGGTTTGGTTAGAAGTTATCTTTTGTGTAATCATTTTTCGGAGTCACCTAGTGCAG,12200 fluorescence intensity (a.u.)
16,GTTTTAATAATGTGTTTGTTTTGGGTTAAAAACCATACTACGGAGTCACCTAGTGCAG,8340 fluorescence intensity (a.u.)
17,TCAGTACTATGGTTTTTTTTTTTTTTGCTCAGCAATCGACCGGAGTCACCTAGTGCAG,8820 fluorescence intensity (a.u.)
18,CCCATATTCCAACGTACCCCAATACTCTTTTCATCCGGTCCGGAGTCACCTAGTGCAG,9520 fluorescence intensity (a.u.)
19,GACATACCTGCATGCTCTTCAATTGAAAATCGTTTCAGTTCGGAGTCACCTAGTGCAG,8320 fluorescence intensity (a.u.)
20,GGGTGAGTGGGATGGGTTGGTCCCTGGAGAGGAATATTCCCGGAGTCACCTAGTGCAG,10300 fluorescence intensity (a.u.)
21,TAACATGAACTTACTCATCAATTCCACATTTTTTAGTCGCCGGAGTCACCTAGTGCAG,9670 fluorescence intensity (a.u.)

row,Sequence,binding signal
1,CCAAGTATAGCTGTATCGACCATTTGCCATATCGGCTCAACGGAGTCACCTAGTGCAG,8870 fluorescence intensity (a.u.)
2,TTTGTTTTATTGTTAGTGCCTAATCGTTACAAATTTCAGTCGGAGTCACCTAGTGCAG,8390 fluorescence intensity (a.u.)
3,GTCTGTTTGGATACTTTGCACAATCTTTGCATCGATCTTACGGAGTCACCTAGTGCAG,9380 fluorescence intensity (a.u.)
4,TTTTTGTTGACCAAATCAATTGTCCTTGTCCATCGCTATCCGGAGTCACCTAGTGCAG,13100 fluorescence intensity (a.u.)
5,GTATTCTCAGGTTCGATTTCCACAAGGAACATGTGTGTCACGGAGTCACCTAGTGCAG,9190 fluorescence intensity (a.u.)
6,TGGTTGAATTCTGGTTCGGGTATCCTCAATTTCGGGGTTTCGGAGTCACCTAGTGCAG,17700 fluorescence intensity (a.u.)
7,AATTACCAGTTTTTTACGATGCCCTATAGCAAATTCACGTCGGAGTCACCTAGTGCAG,8180 fluorescence intensity (a.u.)
8,CTCTCTCTCACAATCTGTTGGGCGCCGCAAGACTCGGAAACGGAGTCACCTAGTGCAG,8200 fluorescence intensity (a.u.)
9,ATTTCTTCCATTCCATGTACTGTTTGGTTCCATTCCACCACGGAGTCACCTAGTGCAG,9340 fluorescence intensity (a.u.)
10,ACGGTGTTCACCTGCAACGCCGTCCTCGCCGCGCTGCTCCCGGAGTCACCTAGTGCAG,8940 fluorescence intensity (a.u.)
11,TTTGTTTGGTAAAATTTTTGGTGGGGATTGGAGTTGGAAACGGAGTCACCTAGTGCAG,9440 fluorescence intensity (a.u.)
12,CTGTTACTTCACAGTTATTTTTGTTGGGTGGGGACGTGGGCGGAGTCACCTAGTGCAG,12600 fluorescence intensity (a.u.)
13,AGCCGGTACCCCGTCGACGACTACTGCTGCACCGAAGCCACGGAGTCACCTAGTGCAG,8470 fluorescence intensity (a.u.)
14,GAGTCAAACATACGCGGTCCTCACTATAACCACGTCATCTCGGAGTCACCTAGTGCAG,8200 fluorescence intensity (a.u.)
15,TCTCCTCTTTCCTCTGCCGCGCTATCTATCCACCACCTCTCGGAGTCACCTAGTGCAG,9040 fluorescence intensity (a.u.)
16,CCCACCACAGCACCACTTGCTCAGCTTCTCTCTCTGTAACCGGAGTCACCTAGTGCAG,8440 fluorescence intensity (a.u.)
17,TATAACTTTGACTATTTATAACTTTAAAACTATTTAGTTTCGGAGTCACCTAGTGCAG,8270 fluorescence intensity (a.u.)
18,GGAGTAGTAATTTGTTTTGACACAAGCATCGAGCTTTACACGGAGTCACCTAGTGCAG,8990 fluorescence intensity (a.u.)
19,TACTACACTATTAATATATGGTCCAACCTGTCATACACACCGGAGTCACCTAGTGCAG,10700 fluorescence intensity (a.u.)
20,GTCTGATTTATGTTCATTCCTATAGGTTTATTCTGGTGACCGGAGTCACCTAGTGCAG,9390 fluorescence intensity (a.u.)
21,AGAGGAGAGGGAAGCCGCGCTGCGCGCACCACATGTTTGACGGAGTCACCTAGTGCAG,8150 fluorescence intensity (a.u.)

row,Sequence,binding signal
1,TCCTATAAATTCTCCCACGCATCTAGGGCTTCGTCTCATCCGGAGTCACCTAGTGCAG,9200 fluorescence intensity (a.u.)
2,CACCCATCGATCCATCCATCCATCGATCAGTTGTGAATTGCGGAGTCACCTAGTGCAG,10600 fluorescence intensity (a.u.)
3,TATTATTTCACAAACATGCAAGTTCAAATTTTAACTTCTACGGAGTCACCTAGTGCAG,8730 fluorescence intensity (a.u.)
4,CATCATGCAGACACACAGGACCGATCGAACAGCAAACAATCGGAGTCACCTAGTGCAG,8350 fluorescence intensity (a.u.)
5,AACCACCACCGCCACCTCTCTTTGCCGCCGAAGATAAGCTCGGAGTCACCTAGTGCAG,8570 fluorescence intensity (a.u.)
6,ATCCATGTCGACTCACACCCCACTAATTAATCTATTGCTACGGAGTCACCTAGTGCAG,9020 fluorescence intensity (a.u.)
7,CCTCTCGTTTTCCGCGCGCACGCTTTTTAAACTGTTAAACCGGAGTCACCTAGTGCAG,11800 fluorescence intensity (a.u.)
8,ACCGTGTCCGCGCTCGCCTTCAAACCGTCCCCATCCTTTTCGGAGTCACCTAGTGCAG,10700 fluorescence intensity (a.u.)
9,TTCCTGTCCACGACACATTATATGCTGTTTTTTATCTTGTCGGAGTCACCTAGTGCAG,8410 fluorescence intensity (a.u.)
10,CCTCTTTCTTCATTTTTTTTTTCTCCTCGGTGTCGTGGTTCGGAGTCACCTAGTGCAG,11700 fluorescence intensity (a.u.)
11,GCGCATGTTTCCTTAACTGCTAGGTGTGTTTTTTATAAATCGGAGTCACCTAGTGCAG,8340 fluorescence intensity (a.u.)
12,TGACGGTGTTAGCTAGGTAGTTTGTTCGTGTTCGTTCATGCGGAGTCACCTAGTGCAG,9120 fluorescence intensity (a.u.)
13,TTCCCTGCTGCACCTGCTCCTTCGCCGATTGCGTCGCTTCCGGAGTCACCTAGTGCAG,10100 fluorescence intensity (a.u.)
14,CTCGTAACACCTACACTACACGTATGAGCTGAACCCACCGCGGAGTCACCTAGTGCAG,8210 fluorescence intensity (a.u.)
15,TCCATCTCACCCTGTGCCATTTGTACTCGCTGCTAGAGTTCGGAGTCACCTAGTGCAG,9020 fluorescence intensity (a.u.)
16,AACCCGCCCGGCCGCCACACACGCCTCTCTAGCTACCCGGCGGAGTCACCTAGTGCAG,8870 fluorescence intensity (a.u.)
17,TCTCCTCGCCATCTTCCTCCGCCACCACCGCCCATTCTCACGGAGTCACCTAGTGCAG,9160 fluorescence intensity (a.u.)
18,CACACCGCCGCCGCCCGCATACGATCCCCGCAACGGACCGCGGAGTCACCTAGTGCAG,8740 fluorescence intensity (a.u.)
19,GACCAGTAGCACCGCCGCTTCTCCGCCGCTCGCTCCGACTCGGAGTCACCTAGTGCAG,9790 fluorescence intensity (a.u.)
20,GGTTTCGGTGGCCATCTCCTGTGGCTGGTGCTTGTATTGTCGGAGTCACCTAGTGCAG,8850 fluorescence intensity (a.u.)
21,TTTCCTTCACTTATCCGGTTCAACATTTTCCTAGTTTATGCGGAGTCACCTAGTGCAG,8700 fluorescence intensity (a.u.)

# Seven entries picked at random from those above:
row,Sequence,binding signal
2,CACCCATCGATCCATCCATCCATCGATCAGTTGTGAATTGCGGAGTCACCTAGTGCAG,10600 fluorescence intensity (a.u.)
18,CACACCGCCGCCGCCCGCATACGATCCCCGCAACGGACCGCGGAGTCACCTAGTGCAG,8740 fluorescence intensity (a.u.)
13,TTCCCTGCTGCACCTGCTCCTTCGCCGATTGCGTCGCTTCCGGAGTCACCTAGTGCAG,10100 fluorescence intensity (a.u.)
8,ACCGTGTCCGCGCTCGCCTTCAAACCGTCCCCATCCTTTTCGGAGTCACCTAGTGCAG,10700 fluorescence intensity (a.u.)
20,GGTTTCGGTGGCCATCTCCTGTGGCTGGTGCTTGTATTGTCGGAGTCACCTAGTGCAG,8850 fluorescence intensity (a.u.)
14,CTCGTAACACCTACACTACACGTATGAGCTGAACCCACCGCGGAGTCACCTAGTGCAG,8210 fluorescence intensity (a.u.)
1,TCCTATAAATTCTCCCACGCATCTAGGGCTTCGTCTCATCCGGAGTCACCTAGTGCAG,9200 fluorescence intensity (a.u.)
